The source of these data is PubChem BioAssay AID282 (DTP/NCI, 2004).

The list is a part of this screen's results and no random one: its compounds were picked by chemical class. Not every dose and run of a compound is shown. T/C is the treated group as % of the vehicle group. Some doses have a count of surviving animals in place of a T/C: the source files T/C as zero there, which appears to mark a toxic dose or a test without result, not a measured value. Some survivor counts are full or nearly so, which does not show that the dose was tolerated: the source hardly ever lists a survival T/C far under the control, and the zero likely stands for such cases as well. Counts of survivors are from the toxicity check (mostly the fifth day) where no day follows; animals may have died later. Schedule codes are those of the source, taken here to give the interval after Q, in days (D) or hours (H), and the number of doses after X. Some schedule codes hold Z or #, which are not explained here. Some doses were run more than once; their values stand side by side, smallest first. For survival time, the PubChem record calls one and a half times the control and up active, and a quarter to a half above the control has no call in these data; cut-offs in other NCI protocols can differ.

The subject of this assay is BDF1 mice, L1210 terephthalanilide-resistant leukemia ip, survival T/C. As to the kind of experiment: NCI In Vivo Anticancer Drug Screen. Data for tumor model L1210 Leukemia resistant to A Terephthalanilide; NSC 38280 (intraperitoneal) in B6D2F1 (BDF1) mice. To be noted: T/C endpoint: mean survival time, higher T/C = longer survival. The protocol:
The antitumor activity of compounds was measured in mice bearing transplantable tumors. Survival or tumor size were measured and the results are expressed as the measurement made in the treated group (T) divided by the measurement made in the vehicle treated control group (C). The tumor model used in this assay is L1210 Leukemia resistant to A Terephthalanilide; NSC 38280 (intraperitoneal) in B6D2F1 (BDF1) mice

With `NC1CCCCC1.O=P(O)(N(CCCl)CCCl)N1CC1`, the T/C (dose: 1.25 mg/kg/injection, schedule: Q01DX010 (ip), vehicle: saline) was 101 % of control; the T/C (dose: 2.5 mg/kg/injection, schedule: Q01DX010 (ip), vehicle: saline) is 109 and 160 % of control; the T/C (dose: 5.0 mg/kg/injection, schedule: Q01DX010 (ip), vehicle: saline) was 125 and 177 % of control; the T/C (dose: 10.0 mg/kg/injection, schedule: Q01DX010 (ip), vehicle: saline) was 100 and 150 % of control. Moreover, the survivor count (dose: 20.0 mg/kg/injection, schedule: Q01DX010 (ip), vehicle: saline) is 6 of 6.
Regarding `CN(N=O)C(=N)N[N+](=O)[O-]`, the T/C by setting is: (dose: 8.0 mg/kg/injection, schedule: Q01DX010 (ip), vehicle: saline) 122 and 135 % of control; (dose: 16.0 mg/kg/injection, schedule: Q01DX010 (ip), vehicle: saline) 102 and 126 % of control. Further, the survivor count is, setting by setting: (dose: 32.0 mg/kg/injection, schedule: Q01DX010 (ip), vehicle: saline) 6 of 6; (dose: 64.0 mg/kg/injection, schedule: Q01DX010 (ip), vehicle: saline) 1 of 6 and 6 of 6.
Take `Cc1[nH]c(=O)[nH]c(=O)c1N(CCCl)CCCl`: the T/C was 108 % of control (dose: 0.25 mg/kg/injection, schedule: Q01DX010 (ip), vehicle: saline); 104 % of control (dose: 0.5 mg/kg/injection, schedule: Q01DX010 (ip), vehicle: saline); 123 % of control (dose: 1.0 mg/kg/injection, schedule: Q01DX010 (ip), vehicle: saline); 119 % of control (dose: 7.5 mg/kg/injection, schedule: Q01DX Z (ip), vehicle: alkali diluted with saline); 133 % of control (dose: 10.0 mg/kg/injection, schedule: Q01DX Z (ip), vehicle: alkali diluted with saline). Further, the survivor count is, setting by setting: (dose: 2.0 mg/kg/injection, schedule: Q01DX010 (ip), vehicle: saline) 6 of 6; (dose: 15.0 mg/kg/injection, schedule: Q01DX Z (ip), vehicle: alkali diluted with saline) 6 of 6; (dose: 20.0 mg/kg/injection, schedule: Q01DX Z (ip), vehicle: alkali diluted with saline) 6 of 6.
